Results are given in words; binding and its absence hold for the method and conditions named. Binding seen in cells or lysates may run through a third protein. Here binding means that the protein was enriched with, or labelled near, the bait; the list need not be complete.
B1: UbcE2M (enzyme, UniProt Q9VSF3 1-181)
chain: MIKLFTLKQQKKDGEQKGSQQKKASAAQLRIQKDINELNLPNTCATDFPDPNDLLNFKLIISPDEGFYRDGRFVFNFRVGSNYPHEPPKVKCATQVYHPNIDLDGNVCLNILREDWNPVLNINSIVYGLQFLFLEPNPEDPLNKEAADVLQTNRRQFENNVKKAMRGGCVGETYFECCLLK
B2: Flotillin 2 (Flo2), endogenous (protein, UniProt O61492 1-438)
chain: MGNIHTTGPNEALIVSGGCCGSTKKRTIVGGWAWAWWLVTDVQRLSLNVMTLNPMCENVETSQGVPLTVTGVAQCKIMKSSSYKQTDYHNDEADELLGTASEQFLGKSVKEIKQTILQTLEGHLRAILGTLTVEEVYKDRDQFAALVREVAAPDVGRMGIEILSFTIKDVYDDVQYLASLGKAQTAVVKRDADAGVAEANRDAGIREAECEKSAMDVKYSTDTKIEDNTRMYKLQKANFDQEINTAKAESQLAYELQAAKIRQRIRNEEIQIEVVERRKQIEIESQEVQRKDRELTGTVKLPAEAEAFRLQTLAQAKQCQTIEGARAEAERIRKIGSAEAHAIELVGKAEAERMRMKAHVYKQYGDAAIMNIVLESLPKIAAEVAAPLAKTDEIVLIGGNDNITNDVTRLVAQLPPSINALTGVDLSKVLSKIPGAKA
B3: Toll-7, endogenous (receptor, UniProt Q7KIN0 17-1446)
chain: VESALAPKESESSASAMLGAGTGAAATVSLSGDYSSLLSNVPAASPVPANPSQPSGPANQCSWSYNGTSSVHCALRLIERQPGLDLQGADGSSQLTIQCSELYLFESTLPVAVFARLQTLEALRLDSCKLLQLPNNAFEGLATLKSLRLSTHNSEWGPTRTLELFPDSLGGLKQLTDLDLGDNNLRQLPSGFLCPVGNLQVLNLTRNRIRTAEQMGFADMNCGAGSGSAGSELQVLDASHNELRSISESWGISRLRRLQHLNLAYNNLSELSGEALAGLASLRIVNLSNNHLETLPEGLFAGSKELREIHLQQNELYELPKGLFHRLEQLLVVDLSGNQLTSNHVDNTTFAGLIRLIVLNLAHNALTRIDYRTFKELYFLQILNLRNNSIGHIEDNAFLPLYNLHTLNLAENRLHTLDDKLFNGLYVLSKLTLNNNLISVVEPAVFKNCSDLKELDLSSNQLNEVPRALQDLAMLRTLDLGENQIRTFDNQSFKNLHQLTGLRLIDNQIGNITVGMFQDLPRLSVLNLAKNRIQSIERGSFDKNFELEAIRLDRNFLADINGVFATLVSLLWLNLSENHLVWFDYAFIPSNLKWLDIHGNYIEALGNYYKLQEEIRVKTLDASHNRITEIGPMSIPNTIELLFINNNLIGNVQPNAFVDKANLARVDLYANQLSKLQLQQLRVAPVVAPKPLPEFYLGGNPFECDCTMDWLQRINNLTTRQHPRVMDMANIECVMPHARGAAVRPLSGLRPQDFLCRYESHCFALCHCCDFDACDCEMTCPSNCTCYHDQIWSTNVVDCGGQQTTELPRRVPMDSSVVYLDGNNFPVLKNHAFIGRKNLRALYVNGSQVAAIQNRTFASLASLQLLHLADNKLRTLHGYEFEQLSALRELYLQNNQLTTIENATLAPLAALELIRIDGNRLVTLPIWQMHATHFGTRLKSISLGRNQWSCRCQFLQALTSYVADNALIVQDAQDIYCMAASSGTGSAALEDSSSNSGSLEKRELDFNATGAACTDYYSGGSMLQHGIPESYIPLLAAALALLFLLVVIAMVFAFRESLRIWLFAHYGVRVFGPRCEESEKLYDAVLLHSAKDSEFVCQHLAAQLETGRPPLRVCLQHRDLAHDATHYQLLEATRVSRRVVILLTRNFLQTEWARCELRRSVHDALRGRPQKLVIIEEPEVAFEAESDIELLPYLKTSAVHRIRRSDRHFWEKLRYALPVDYPTFRGNNYTLELDHHNHERVKQPASPGLLYRQAPPPAYCGPADAVGIGAVPQVVPVNASVPAEQNYSTATTATPSPRPQRRGEQPGSGSGGNHHLHAQYYQHHGMRPPSEHIYSSIDSDYSTLDNEQHMLMMPGAPGGLAMEAAQRAQTWRPKREQLHLQQAQAGTLGSKASQAAHQQQQQQQQQQQQQPNPTAVSGQQQGPHVQAYLV
B4: Prosbeta3 (protein, UniProt Q9XYN7 1-205)
chain: MSILAYNGGCVVAMRGKDCVAIATDHRFGIQAQTISTDFKKVFHIGPRMFLGLTGLQTDILTVRDRLMFRKNLYETRENREMCPKPFSAMMSSFLYEHRFGPYFIEPVVAGLDPKTMEPFICNMDLIGCPNAPDDFVVAGTCAEQLYGMCETLWKPDLEPDQLFEVIAQSIVNAFDRDAMSGWGATVYIIEKDKITERTLKTRMD
B5: Prosbeta7 (protein, UniProt Q9VNA5 1-268)
chain: MLNNYNSLAQPMWQNGPAPGEFYNFTGGQTPVQQLPRELTTMGPYGTKHSTASSTTGTSVLGIRYDSGVMLAADTLVSYGSMARYQNIERVFKVNKNILLGGSGDFADIQSIKRNIDQKMIEDQCCDDNIEMKPKSLASWMTRVLYNRRSRMNPLYIDVVVGGVDNEGTPYLANVDLRGRSYEDYVVATGFARHLAVPLVREKKPKDRDFTAVEASELIRTCMEVLYYRDTRNISQYTVGVCSVNGCGVEGPFQVNENWTFAETIKGY
B6: Cand1 (protein, UniProt Q9VKY2 1-1248)
chain: MASHQYHQIANLLEKMTSTDKDFRFMATNDLMTELQKDSIILDDESEKKVVRMVLKLLEDKNGEVQNLAVKCLGPLVNKVKEIQVETIVDSLCANMMSNTEQLRDISSIGLKTVIAELPQSSNSLAPNVCQRITGKLSTAIEKEDVSVKLESLDILADLLSRFGEFLVPFHSTILKALMPQLASSRQAVRKRTIVALSFLLIQANSNAYNGVIDHLLDGLENPPNPAAIRTYIQCLASICRQAGHRLCNHIDRSMLLLSQYSQRDDDELREFCLQACEAFVMRCPDAINPHIPMILELCLNYITYDPNYNYETDDGDTGNAMDTEDDEYVDSEEYSDDDDMSWKVRRAAAKCLEVLISTRQELVEDFYRSLSPALIARFKEREENVKSDIFHAYVALLKNTRLTDDVANDHDSMDQVSGPTSLLIEQLPLIVKAIQPLMREKSMKTRQDCFLLLRELLNSLPGALGPYLDSIVPGISYSLNDKSSTSNMKIESLGFLYSLLQGHPPHVFHPHIPLLVPLVVTSVFDPFYKIATEALLVLQQLVKVIRPLEPNAAKSDFDAPSFVGQVYSCTLQKLKVTDVDQEVKERAIACMGQIIANMGDMLQNELAVCLPIFMERLKNEVTRLSSVKALTLIAASSLRIDLTPILHDVLPALGTFLRKNHRALKLHSLDLINKIVINYSSNFEANLLQTAIVEIPPLISDSDLHVAQYSLTLLSTVARRQPQALVGIHEQFLRSVLILVRSPLLQGSALNCTLELFQALVQTQLSGLDYHSLVSKLMAPVLGGNGDVKSRATAGAPSEVVQLHKQAYHSSAKCIAALTQQCPQVATPLATKLITDLQKRNDTEIIFCLLTIGEIGRHFDLSSIQVLPQTIIECFGATSEDVKAAASHALGAVSVGSLQTYLPLILHEIEVQPKRQYLLLHSLKEVISSLSVSPSGLAQLLPSVPSIWDQLFKHCECSEEGSRNVVAECLGKLVLVNPDELLPQLQQALRSESATMRTVVVSSVKFTISDQPQPIDVLLKQNIGEFLFALRDPEPQVRRVALVAFNSAVHNKPSLVRDLLPTLLPWLYSETKVKSELIREVEMGPFKHTVDDGLDIRKAAFECMYTLLEQGLDRVDVMQFLDHVQAGLCDHYDIKMLTYLMTARLAILCPDKVLLRLDQFIQQLRDTCTHKVKANSVKQEYEKQDELKRSALRAVSALSQIPKANKNQQLVDFLKSIKETPELNKIFEYIQKDSITGSSDIIVMDQS
B7: Prosbeta5 (protein, UniProt Q7K148 1-282)
chain: MALAEICKISNAPYMRPNAWSSADVEEEQKGLMCNLANPYTLAAPPFENPLHNLNQIQANGDKTGVKINFDHGTTTLGFKFKGGVLLAVDSRATGGSYIGSQSMKKIVEINQFMLGTLAGGAADCVYWDRVLSKECRLHELRNKERISVAAASKIMANIAHEYKGMGLSMGMMLAGYDKRGPGLYYVDSEGSRTPGNLFSVGSGSLYAYGVLDSGYHWDLEDKEAQELGRRAIYHATFRDAYSGGIIRVYHIKEDGWVNISNTDCMELHYMYQEQLKQQAAK

biological target: N-terminally HA-tagged Fra (Frazzled), pan-neurally overexpressed (Drosophila); test: affinity purification with mass spectrometry; lysates of Drosophila embryos pan-neurally (elav-Gal4) overexpressing N-terminally HA-tagged Fra; anti-HA immunoprecipitation overnight at 4°C, protein A and G agarose beads, TBSV with 1% NP40; eluted with glycine pH 2.0; label-free LC-MS/MS; control embryos with elav-Gal4 alone

Row | binding | Binder
1 | binds | B1
2 | binds | B2
3 | binds | B3
4 | binds | B4
5 | binds | B5
6 | binds | B6
7 | binds | B7

From PMC10445734
